PubChem BioAssay AID1259254 | NCATS – 2017
Assay: 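Genome-wide screen for genes that prevent DNA re-replication in cancer cells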 (primary screen). Cell system: human HCT116 colorectal cancer cells. Reagent: single siRNA against human genes. Timing: 3 days. Read-out: 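Imaged Hoechst DNA stain sorts each cell into a cycle phase by DNA amount; per plate, G2 fraction set to 0% for non-targeting and 100% for GMNN siRNA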. Reading the numbers: G2 robust z-score and G2 cells, % of GMNN control: higher = more G2 cells, more excess DNA replication; raw share of cells in G2: higher = larger share of cells with G2 DNA content. Call rule: 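Active siRNAs have a G2 robust z of 5 or more median absolute deviations over the median, which in these data means about 38% or higher of GMNN control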.
In all, the deposit lists about 59,000 reagents; below is a part drawn at random. In the full data, about 1,550 (2.6%) were called active. 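G2 share is only a proxy for re-replication; each gene was hit by three separate siRNAs, and active genes were retested.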 Raw values vary from plate to plate and are shown uncorrected. The numbers tell different reagents against one gene apart. Not stated in the record: the amount of reagent.

no.	target	reagent no.	G2 robust z-score	G2 cells, % of GMNN control	raw share of cells in G2 (%)	Outcome
1	CYBA (GeneID 1535)	1	-1.12	-4.91	2.29	inactive
2	CYBA (GeneID 1535)	2	4.36	33.6	16.7	inactive
3	CYBA (GeneID 1535)	3	0.745	8.21	9.15	inactive
4	PLEKHO2 (GeneID 80301)	1	-0.216	1.45	5.04	inactive
5	PLEKHO2 (GeneID 80301)	2	-0.142	1.97	5.16	inactive
6	PLEKHO2 (GeneID 80301)	3	-0.51	-0.62	2.21	inactive
7	RPL29P32 (GeneID 390856)	1	1.72	15.1	9.5	inactive
8	RPL29P32 (GeneID 390856)	2	-0.421	0.00404	4.79	inactive
9	RPL29P32 (GeneID 390856)	3	-0.0043	2.94	4.88	inactive
10	UCN2 (GeneID 90226)	1	-0.0214	2.82	5.28	inactive
11	UCN2 (GeneID 90226)	2	0.252	4.74	4.49	inactive
12	UCN2 (GeneID 90226)	3	-0.0278	2.77	3.8	inactive
13	KRT5 (GeneID 3852)	1	2.41	19.9	13.3	inactive
14	KRT5 (GeneID 3852)	2	1.99	17	10.4	inactive
15	KRT5 (GeneID 3852)	3	0.937	9.56	8.52	inactive
16	CLK1 (GeneID 1195)	1	4.03	31.3	15.9	inactive
17	CLK1 (GeneID 1195)	2	-0.0214	2.82	6.36	inactive
18	CLK1 (GeneID 1195)	3	0.945	9.62	7.41	inactive
19	TSBP1 (GeneID 10665)	1	0.796	8.57	8.34	inactive
20	TSBP1 (GeneID 10665)	2	0.76	8.31	7.57	inactive
21	TSBP1 (GeneID 10665)	3	0.104	3.7	4.56	inactive
22	TRIM51G (GeneID 120824)	1	0.309	5.14	6.15	inactive
23	TRIM51G (GeneID 120824)	2	2.09	17.7	8.59	inactive
24	TRIM51G (GeneID 120824)	3	0.341	5.37	3.39	inactive
25	PGBD3 (GeneID 267004)	1	1.66	14.7	8.99	inactive
26	PGBD3 (GeneID 267004)	2	-0.197	1.58	3.66	inactive
27	PGBD3 (GeneID 267004)	3	-0.426	-0.0291	3.26	inactive
28	RRP36 (GeneID 88745)	1	-0.809	-2.73	2.93	inactive
29	RRP36 (GeneID 88745)	2	2.01	17.1	8.36	inactive
30	RRP36 (GeneID 88745)	3	-0.674	-1.77	2.36	inactive
31	BCL2L15 (GeneID 440603)	1	1.19	11.4	8.01	inactive
32	BCL2L15 (GeneID 440603)	2	-0.443	-0.151	3.36	inactive
33	BCL2L15 (GeneID 440603)	3	-0.897	-3.34	1.98	inactive
34	ZFAT (GeneID 57623)	1	-1.31	-6.24	1.67	inactive
35	ZFAT (GeneID 57623)	2	0.81	8.67	5.85	inactive
36	ZFAT (GeneID 57623)	3	0.208	4.43	7.91	inactive
37	NTN3 (GeneID 4917)	1	-0.492	-0.495	4.61	inactive
38	NTN3 (GeneID 4917)	2	-0.534	-0.793	2.82	inactive
39	NTN3 (GeneID 4917)	3	-0.0479	2.63	4.5	inactive
40	PON1 (GeneID 5444)	1	0.469	6.27	7.13	inactive
41	PON1 (GeneID 5444)	2	-1.4	-6.9	2.05	inactive
42	PON1 (GeneID 5444)	3	0.538	6.75	6.39	inactive
43	KRT13 (GeneID 3860)	1	-0.327	0.67	5.29	inactive
44	KRT13 (GeneID 3860)	2	3.57	28.1	16.4	inactive
45	KRT13 (GeneID 3860)	3	-0.804	-2.69	3.21	inactive
46	ZSWIM1 (GeneID 90204)	1	2.59	21.2	13.1	inactive
47	ZSWIM1 (GeneID 90204)	2	0.0462	3.29	4.03	inactive
48	ZSWIM1 (GeneID 90204)	3	1.82	15.8	7.93	inactive

5 of these entries, set out differently.
target	reagent no.	G2 robust z-score	G2 cells, % of GMNN control	raw share of cells in G2 (%)	Outcome
CLK1 (GeneID 1195)	1	4.03	31.3	15.9	inactive
CLK1 (GeneID 1195)	2	-0.0214	2.82	6.36	inactive
CLK1 (GeneID 1195)	3	0.945	9.62	7.41	inactive
TSBP1 (GeneID 10665)	1	0.796	8.57	8.34	inactive
TSBP1 (GeneID 10665)	2	0.76	8.31	7.57	inactive
